Results are given in words; binding and its absence hold for the method and conditions named.
Target: Full-length mouse nectin-2α expressed on L cells (nectin-2α-L cells) (mouse) (UniProt P32507)
Assay: mixed-cell aggregation assay and immunofluorescence microscopy of co-cultured L cell lines (trans interaction)

Chains of the proteins cited; added tags and fusions are not shown. Lines headed by an entry give the natural chain unless they say otherwise; changes in a name come on top.
UniProt P32507: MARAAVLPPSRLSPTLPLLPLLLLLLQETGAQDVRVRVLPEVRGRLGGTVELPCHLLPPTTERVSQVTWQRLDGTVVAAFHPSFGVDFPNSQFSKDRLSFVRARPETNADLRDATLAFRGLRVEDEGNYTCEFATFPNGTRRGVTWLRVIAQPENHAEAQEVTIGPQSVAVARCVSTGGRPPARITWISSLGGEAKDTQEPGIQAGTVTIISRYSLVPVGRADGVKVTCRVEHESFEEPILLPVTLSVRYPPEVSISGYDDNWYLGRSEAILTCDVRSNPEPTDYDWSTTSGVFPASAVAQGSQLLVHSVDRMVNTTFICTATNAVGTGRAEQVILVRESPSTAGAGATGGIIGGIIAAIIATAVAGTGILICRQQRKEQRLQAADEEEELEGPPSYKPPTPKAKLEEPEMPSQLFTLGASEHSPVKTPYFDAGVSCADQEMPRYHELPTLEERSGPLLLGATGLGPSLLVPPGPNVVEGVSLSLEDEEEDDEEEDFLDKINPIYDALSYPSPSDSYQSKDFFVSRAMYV

B1: Full-length human nectin-1α expressed on L cells (nectin-1α-L cells) (receptor, UniProt Q15223 31-517, looked up)
chain: QVVQVNDSMYGFIGTDVVLHCSFANPLPSVKITQVTWQKSTNGSKQNVAIYNPSMGVSVLAPYRERVEFLRPSFTDGTIRLSRLELEDEGVYICEFATFPTGNRESQLNLTVMAKPTNWIEGTQAVLRAKKGQDDKVLVATCTSANGKPPSVVSWETRLKGEAEYQEIRNPNGTVTVISRYRLVPSREAHQQSLACIVNYHMDRFKESLTLNVQYEPEVTIEGFDGNWYLQRMDVKLTCKADANPPATEYHWTTLNGSLPKGVEAQNRTLFFKGPINYSLAGTYICEATNPIGTRSGQVEVNITEFPYTPSPPEHGRRAGPVPTAIIGGVAGSILLVLIVVGGIVVALRRRRHTFKGDYSTKKHVYGNGYSKAGIPQHHPPMAQNLQYPDDSDDEKKAGPLGGSSYEEEEEEEEGGGGGERKVGGPHPKYDEDAKRPYFTVDEAEARQDGYGDRTLGYQYDPEQLDLAENMVSQNDGSFISKKEWYV
For B1, the binding was “no binding”.
